± gives the standard deviation of the averaged measurements. This is a selection; strong and weak results do not stand in their true shares.
Compound: Nc1ncnc2c1ncn2[C@@H]1O[C@H](COP(=O)(O)OP(=O)(O)NP(=O)(O)O)[C@@H](O)[C@H]1O [adenylyl imidodiphosphate]
Assay: NP40-soluble protein abundance relative to vehicle (solubility fold change) (ratio); higher = more soluble protein in presence of AMP-PNP
How it was run: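 Values are fold changes against the detergent-processed vehicle, based on vsn-normalised intensities. Jurkat crude lysate was treated at eight concentrations from 0.1 to 10 mM (10 min at room temperature, then 3 min at 37 °C), solubilised with 0.8% NP40 and benzonase, ultracentrifuged and analysed by TMT-labelled LC-MS/MS over three independent experiments.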

Sequences of proteins named here, by UniProt entry; tags and fusion partners are left off. A change or cut given only in a name is not applied to a line headed by its entry.
UniProt Q9HCN8: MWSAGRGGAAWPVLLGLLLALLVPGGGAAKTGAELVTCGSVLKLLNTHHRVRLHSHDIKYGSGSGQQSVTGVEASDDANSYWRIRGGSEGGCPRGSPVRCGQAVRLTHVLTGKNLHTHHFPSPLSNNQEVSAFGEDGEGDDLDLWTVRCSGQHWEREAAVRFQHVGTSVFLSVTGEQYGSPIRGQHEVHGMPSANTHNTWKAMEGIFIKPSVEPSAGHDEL
UniProt Q9H7L9: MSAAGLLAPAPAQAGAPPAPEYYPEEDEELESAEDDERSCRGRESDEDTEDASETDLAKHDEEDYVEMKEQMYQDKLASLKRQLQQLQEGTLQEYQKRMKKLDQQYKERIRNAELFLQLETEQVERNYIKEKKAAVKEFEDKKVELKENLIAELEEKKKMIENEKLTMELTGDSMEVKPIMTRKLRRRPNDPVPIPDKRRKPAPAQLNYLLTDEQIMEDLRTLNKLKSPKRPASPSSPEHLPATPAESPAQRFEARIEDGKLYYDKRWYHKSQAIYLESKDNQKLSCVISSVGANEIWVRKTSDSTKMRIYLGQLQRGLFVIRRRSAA
UniProt Q9NP72: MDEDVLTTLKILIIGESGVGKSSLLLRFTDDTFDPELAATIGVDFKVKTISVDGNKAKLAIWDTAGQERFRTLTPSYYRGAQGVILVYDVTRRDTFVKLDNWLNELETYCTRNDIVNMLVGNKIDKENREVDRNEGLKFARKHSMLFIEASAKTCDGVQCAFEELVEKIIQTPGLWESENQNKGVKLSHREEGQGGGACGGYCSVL
UniProt Q9H444: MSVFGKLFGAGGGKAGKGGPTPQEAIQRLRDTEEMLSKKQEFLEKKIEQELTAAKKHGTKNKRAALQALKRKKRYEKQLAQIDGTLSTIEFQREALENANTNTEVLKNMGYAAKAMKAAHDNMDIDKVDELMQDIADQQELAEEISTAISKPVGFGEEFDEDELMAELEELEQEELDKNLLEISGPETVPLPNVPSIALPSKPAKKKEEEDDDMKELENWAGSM
UniProt Q9H8G2: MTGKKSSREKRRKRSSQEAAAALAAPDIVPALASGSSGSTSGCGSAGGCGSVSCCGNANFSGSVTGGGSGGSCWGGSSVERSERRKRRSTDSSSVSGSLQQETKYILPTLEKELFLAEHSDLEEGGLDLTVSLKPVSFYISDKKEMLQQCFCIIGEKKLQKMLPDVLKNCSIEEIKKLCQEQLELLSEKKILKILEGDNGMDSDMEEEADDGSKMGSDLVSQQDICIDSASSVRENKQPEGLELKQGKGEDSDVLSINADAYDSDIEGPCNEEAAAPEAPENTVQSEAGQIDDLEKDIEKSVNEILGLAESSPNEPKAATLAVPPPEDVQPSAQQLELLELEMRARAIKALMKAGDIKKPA
UniProt Q9C035: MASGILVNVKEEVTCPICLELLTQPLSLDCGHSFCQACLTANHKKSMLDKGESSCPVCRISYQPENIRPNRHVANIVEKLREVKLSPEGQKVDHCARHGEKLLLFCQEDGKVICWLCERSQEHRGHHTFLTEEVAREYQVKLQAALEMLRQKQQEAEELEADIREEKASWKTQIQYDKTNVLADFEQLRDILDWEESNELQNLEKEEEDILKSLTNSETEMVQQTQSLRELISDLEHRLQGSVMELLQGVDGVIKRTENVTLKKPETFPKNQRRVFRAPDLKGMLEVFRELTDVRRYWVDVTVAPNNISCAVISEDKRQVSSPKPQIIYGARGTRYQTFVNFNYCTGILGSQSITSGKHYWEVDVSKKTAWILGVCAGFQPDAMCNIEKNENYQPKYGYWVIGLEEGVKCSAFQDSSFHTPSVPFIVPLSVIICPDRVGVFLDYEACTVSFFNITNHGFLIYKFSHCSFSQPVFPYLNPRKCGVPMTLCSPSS
UniProt Q9HBM1: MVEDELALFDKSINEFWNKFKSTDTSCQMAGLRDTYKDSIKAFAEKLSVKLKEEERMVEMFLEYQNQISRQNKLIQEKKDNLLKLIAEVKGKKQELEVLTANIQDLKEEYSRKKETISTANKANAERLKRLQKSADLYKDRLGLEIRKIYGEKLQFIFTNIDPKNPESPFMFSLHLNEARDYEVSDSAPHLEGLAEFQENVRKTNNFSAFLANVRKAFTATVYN
UniProt Q9H3K6: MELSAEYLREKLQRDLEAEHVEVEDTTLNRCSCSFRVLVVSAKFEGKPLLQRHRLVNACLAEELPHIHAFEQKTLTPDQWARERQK
UniProt Q9BZF2: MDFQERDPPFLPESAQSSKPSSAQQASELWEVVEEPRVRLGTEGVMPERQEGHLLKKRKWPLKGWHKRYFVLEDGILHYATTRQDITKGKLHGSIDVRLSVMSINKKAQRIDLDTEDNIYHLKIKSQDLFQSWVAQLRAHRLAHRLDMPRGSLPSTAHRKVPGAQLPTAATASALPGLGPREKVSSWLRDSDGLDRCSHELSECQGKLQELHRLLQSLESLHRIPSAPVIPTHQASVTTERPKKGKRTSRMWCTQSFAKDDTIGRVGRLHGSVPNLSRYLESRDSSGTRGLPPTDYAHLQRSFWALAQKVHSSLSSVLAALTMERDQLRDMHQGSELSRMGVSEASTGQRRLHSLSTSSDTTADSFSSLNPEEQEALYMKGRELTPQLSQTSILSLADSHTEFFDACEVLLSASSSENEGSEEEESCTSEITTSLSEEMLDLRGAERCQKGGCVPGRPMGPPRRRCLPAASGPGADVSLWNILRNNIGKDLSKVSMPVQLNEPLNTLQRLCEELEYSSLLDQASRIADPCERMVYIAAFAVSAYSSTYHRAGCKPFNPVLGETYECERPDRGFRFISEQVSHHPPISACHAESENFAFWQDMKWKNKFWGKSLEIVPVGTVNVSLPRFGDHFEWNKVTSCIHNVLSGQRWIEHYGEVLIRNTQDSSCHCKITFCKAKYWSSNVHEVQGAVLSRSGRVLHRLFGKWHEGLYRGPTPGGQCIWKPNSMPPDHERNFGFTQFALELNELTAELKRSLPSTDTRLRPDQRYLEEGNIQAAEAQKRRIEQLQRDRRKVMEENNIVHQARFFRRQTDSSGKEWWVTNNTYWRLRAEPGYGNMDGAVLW
UniProt Q9HCE5: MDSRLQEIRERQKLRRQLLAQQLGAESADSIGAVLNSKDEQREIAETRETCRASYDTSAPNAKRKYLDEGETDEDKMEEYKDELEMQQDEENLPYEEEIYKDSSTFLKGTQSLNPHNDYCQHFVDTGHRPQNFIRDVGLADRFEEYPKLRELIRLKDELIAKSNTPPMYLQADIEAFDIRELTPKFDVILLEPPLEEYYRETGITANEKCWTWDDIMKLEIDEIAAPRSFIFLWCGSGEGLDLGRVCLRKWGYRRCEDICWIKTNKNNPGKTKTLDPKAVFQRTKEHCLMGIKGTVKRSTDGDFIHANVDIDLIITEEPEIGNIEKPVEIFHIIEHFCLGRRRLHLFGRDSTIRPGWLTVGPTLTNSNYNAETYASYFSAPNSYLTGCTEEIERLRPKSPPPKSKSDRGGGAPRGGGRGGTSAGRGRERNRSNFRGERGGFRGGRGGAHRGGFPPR
UniProt Q9H7D7: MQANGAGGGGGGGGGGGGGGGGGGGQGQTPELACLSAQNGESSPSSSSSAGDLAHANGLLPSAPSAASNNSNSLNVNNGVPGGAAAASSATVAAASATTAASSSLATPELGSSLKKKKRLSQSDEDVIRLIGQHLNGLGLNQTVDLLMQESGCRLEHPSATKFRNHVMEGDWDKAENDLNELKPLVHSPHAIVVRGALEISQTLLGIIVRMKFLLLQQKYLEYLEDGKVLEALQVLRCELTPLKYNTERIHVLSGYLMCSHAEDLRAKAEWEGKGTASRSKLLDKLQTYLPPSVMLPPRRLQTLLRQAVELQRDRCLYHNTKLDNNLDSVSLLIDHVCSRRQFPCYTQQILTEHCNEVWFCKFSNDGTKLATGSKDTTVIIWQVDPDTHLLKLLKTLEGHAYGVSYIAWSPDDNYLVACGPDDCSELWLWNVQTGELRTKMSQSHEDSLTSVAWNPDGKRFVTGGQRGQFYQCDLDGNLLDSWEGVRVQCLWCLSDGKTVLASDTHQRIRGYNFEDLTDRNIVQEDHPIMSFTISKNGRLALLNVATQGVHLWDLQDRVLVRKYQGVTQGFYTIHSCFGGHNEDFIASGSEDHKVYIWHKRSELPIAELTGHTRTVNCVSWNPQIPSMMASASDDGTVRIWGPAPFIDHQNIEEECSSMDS
UniProt Q9BZM5, whole entry: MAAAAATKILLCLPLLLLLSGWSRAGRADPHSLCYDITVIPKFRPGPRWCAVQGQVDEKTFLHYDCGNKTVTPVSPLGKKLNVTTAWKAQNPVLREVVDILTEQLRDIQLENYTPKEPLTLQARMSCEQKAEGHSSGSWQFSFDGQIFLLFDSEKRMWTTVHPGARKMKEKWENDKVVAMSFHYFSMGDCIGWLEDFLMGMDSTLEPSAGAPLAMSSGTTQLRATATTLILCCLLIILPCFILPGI
UniProt Q9NPF4: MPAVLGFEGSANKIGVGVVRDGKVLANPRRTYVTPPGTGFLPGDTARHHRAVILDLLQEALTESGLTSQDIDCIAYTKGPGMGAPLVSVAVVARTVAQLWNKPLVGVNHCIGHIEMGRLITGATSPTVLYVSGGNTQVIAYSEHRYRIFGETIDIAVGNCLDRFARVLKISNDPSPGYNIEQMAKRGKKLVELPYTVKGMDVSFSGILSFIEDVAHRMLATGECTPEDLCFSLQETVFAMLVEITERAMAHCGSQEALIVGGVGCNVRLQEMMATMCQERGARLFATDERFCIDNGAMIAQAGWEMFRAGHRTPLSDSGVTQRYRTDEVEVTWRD
UniProt Q9H8M7: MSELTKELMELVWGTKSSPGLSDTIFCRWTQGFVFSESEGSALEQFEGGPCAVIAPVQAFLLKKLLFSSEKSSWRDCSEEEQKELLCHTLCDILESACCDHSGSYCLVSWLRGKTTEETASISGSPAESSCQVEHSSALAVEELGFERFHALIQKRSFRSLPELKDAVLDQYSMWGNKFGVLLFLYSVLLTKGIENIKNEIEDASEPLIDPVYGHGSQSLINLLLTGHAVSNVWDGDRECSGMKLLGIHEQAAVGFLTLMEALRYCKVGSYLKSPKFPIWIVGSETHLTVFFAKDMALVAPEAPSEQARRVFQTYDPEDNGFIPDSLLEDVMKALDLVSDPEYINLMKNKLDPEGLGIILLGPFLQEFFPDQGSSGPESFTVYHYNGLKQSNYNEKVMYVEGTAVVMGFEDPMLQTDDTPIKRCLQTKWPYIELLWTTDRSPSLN
UniProt Q9HBK9: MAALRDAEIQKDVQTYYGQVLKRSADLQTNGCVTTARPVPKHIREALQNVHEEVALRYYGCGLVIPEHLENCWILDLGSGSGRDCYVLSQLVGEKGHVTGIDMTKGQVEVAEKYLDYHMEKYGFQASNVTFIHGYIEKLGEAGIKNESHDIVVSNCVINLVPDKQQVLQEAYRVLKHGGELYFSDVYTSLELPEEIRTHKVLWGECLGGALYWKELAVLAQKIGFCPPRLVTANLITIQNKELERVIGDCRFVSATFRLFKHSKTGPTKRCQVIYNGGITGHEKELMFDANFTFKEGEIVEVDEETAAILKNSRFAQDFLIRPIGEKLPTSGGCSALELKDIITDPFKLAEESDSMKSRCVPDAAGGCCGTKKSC
UniProt Q9H871: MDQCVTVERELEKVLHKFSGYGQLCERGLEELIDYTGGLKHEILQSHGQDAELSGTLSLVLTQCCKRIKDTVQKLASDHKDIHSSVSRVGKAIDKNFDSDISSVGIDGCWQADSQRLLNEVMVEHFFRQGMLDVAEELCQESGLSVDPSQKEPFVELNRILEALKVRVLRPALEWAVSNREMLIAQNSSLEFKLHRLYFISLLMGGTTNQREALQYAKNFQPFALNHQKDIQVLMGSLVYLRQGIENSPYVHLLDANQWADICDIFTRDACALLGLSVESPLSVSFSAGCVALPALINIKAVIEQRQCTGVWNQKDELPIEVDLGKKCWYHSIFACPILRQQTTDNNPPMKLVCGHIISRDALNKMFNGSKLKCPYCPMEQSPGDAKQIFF
UniProt Q9NPB8: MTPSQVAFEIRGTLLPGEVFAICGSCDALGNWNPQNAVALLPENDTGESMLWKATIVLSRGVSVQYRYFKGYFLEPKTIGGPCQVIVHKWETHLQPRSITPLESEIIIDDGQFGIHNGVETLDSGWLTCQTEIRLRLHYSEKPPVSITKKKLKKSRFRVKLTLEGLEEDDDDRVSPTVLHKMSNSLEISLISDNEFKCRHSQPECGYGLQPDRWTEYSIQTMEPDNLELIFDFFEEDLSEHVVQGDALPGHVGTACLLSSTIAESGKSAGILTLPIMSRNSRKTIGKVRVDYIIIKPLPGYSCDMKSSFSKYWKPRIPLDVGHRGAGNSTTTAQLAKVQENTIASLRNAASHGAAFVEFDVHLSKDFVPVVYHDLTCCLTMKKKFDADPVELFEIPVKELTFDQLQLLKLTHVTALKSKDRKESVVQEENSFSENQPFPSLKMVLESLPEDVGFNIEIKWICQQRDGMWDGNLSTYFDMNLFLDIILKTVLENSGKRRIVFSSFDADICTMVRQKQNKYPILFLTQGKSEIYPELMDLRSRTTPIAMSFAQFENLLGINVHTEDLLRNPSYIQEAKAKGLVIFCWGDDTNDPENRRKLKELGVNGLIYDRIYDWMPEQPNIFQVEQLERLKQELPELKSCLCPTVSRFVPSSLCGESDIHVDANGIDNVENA

Target	NP40-soluble protein abundance (concentration: 1mM)	NP40-soluble protein abundance (concentration: 2mM)	NP40-soluble protein abundance (concentration: 4mM)	NP40-soluble protein abundance (concentration: 6mM)	NP40-soluble protein abundance (concentration: 8mM)	NP40-soluble protein abundance (concentration: 10mM)
SDF2L1 (UniProt Q9HCN8)	1.01 ± 0.033	1.02 ± 0.072	1.01 ± 0.051	0.99 ± 0.01	0.992 ± 0.021	0.966 ± 0.033
SUDS3 (UniProt Q9H7L9)	0.979 ± 0.022	1.04 ± 0.041	0.949 ± 0.03	0.984 ± 0.02	0.982 ± 0.028	1.01 ± 0.021
RAB1B (UniProt Q9H0U4)	0.976 ± 0.01	0.981 ± 0.016	0.927 ± 0.04	0.972 ± 0.021	0.9252 ± 0.0074	0.937 ± 0.052
UniProt Q9GZP4	1.01 ± 0.035	0.989 ± 0.073	0.991 ± 0.031	1.008 ± 0.0089	1.01 ± 0.027	0.993 ± 0.036
TOLLIP (UniProt Q9H0E2)	0.9922 ± 0.0099	1.05 ± 0.062	1.02 ± 0.027	1 ± 0.027	1.02 ± 0.018	1.05 ± 0.058
RAB18 (UniProt Q9NP72)	0.997 ± 0.033	0.961 ± 0.06	0.977 ± 0.04	0.979 ± 0.03	0.997 ± 0.046	0.947 ± 0.047
L2HGDH (UniProt Q9H9P8)	1.008 ± 0.0097	0.943 ± 0.013	0.952 ± 0.014	0.968 ± 0.029	0.958 ± 0.013	0.933 ± 0.013
CHMP4B (UniProt Q9H444)	0.967 ± 0.063	1.03 ± 0.12	0.949 ± 0.051	0.971 ± 0.075	0.946 ± 0.081	0.99 ± 0.097
UniProt Q9H098 and related entries	0.975 ± 0.016	0.982 ± 0.096	0.942 ± 0.045	0.905 ± 0.051	0.852 ± 0.0097	0.857 ± 0.037
UniProt Q9HCM1	0.991 ± 0.015	1.02 ± 0.036	1 ± 0.062	0.976 ± 0.03	0.966 ± 0.031	0.984 ± 0.054
UniProt Q9GZT3 and related entries	0.976 ± 0.048	0.961 ± 0.026	0.931 ± 0.04	0.954 ± 0.055	0.963 ± 0.027	0.922 ± 0.039
UniProt Q9H0V9 and related entries	1.02 ± 0.042	0.965 ± 0.052	0.973 ± 0.055	0.984 ± 0.059	1.02 ± 0.041	0.978 ± 0.031
UniProt Q9H8G2	1.03 ± 0.036	1.04 ± 0.043	1.02 ± 0.017	1.05 ± 0.013	1.006 ± 0.0039	1.06 ± 0.045
UniProt Q9C035 and related entries	1.01 ± 0.051	1.06 ± 0.086	1.03 ± 0.055	1.04 ± 0.037	1.05 ± 0.027	1.05 ± 0.045
SPC25 (UniProt Q9HBM1)	0.974 ± 0.05	1.03 ± 0.15	1.01 ± 0.099	1.04 ± 0.097	1.05 ± 0.074	1.06 ± 0.087
ACTR8 (UniProt Q9H981)	1.033 ± 0.0093	1.02 ± 0.038	1.06 ± 0.019	1.07 ± 0.028	1.06 ± 0.023	1.07 ± 0.017
JPH1 (UniProt Q9HDC5)	1 ± 0.028	1.02 ± 0.025	0.999 ± 0.036	1.02 ± 0.013	1.01 ± 0.024	1.03 ± 0.02
BOLA2 (UniProt Q9H3K6)	0.981 ± 0.029	1.04 ± 0.051	0.974 ± 0.045	1.05 ± 0.11	1.04 ± 0.098	1.02 ± 0.1
TNKS1BP1 (UniProt Q9C0C2)	0.971 ± 0.023	1.02 ± 0.019	1.05 ± 0.024	1.02 ± 0.091	1.02 ± 0.067	1.05 ± 0.069
NUCKS1 (UniProt Q9H1E3)	1.02 ± 0.037	1.11 ± 0.079	1.03 ± 0.046	1.07 ± 0.033	1.07 ± 0.035	1.04 ± 0.059

Target	NP40-soluble protein abundance (concentration: 1mM)	NP40-soluble protein abundance (concentration: 2mM)	NP40-soluble protein abundance (concentration: 4mM)	NP40-soluble protein abundance (concentration: 6mM)	NP40-soluble protein abundance (concentration: 8mM)	NP40-soluble protein abundance (concentration: 10mM)
DEF6 (UniProt Q9H4E7)	1.03 ± 0.014	1.05 ± 0.058	1.01 ± 0.014	1.03 ± 0.023	0.999 ± 0.013	1.02 ± 0.03
UniProt Q9H4A5-2|Q5T5I6 and related entries	1.02 ± 0.024	1.04 ± 0.047	1.03 ± 0.035	1.03 ± 0.013	1.05 ± 0.035	1.01 ± 0.022
ISCU (UniProt Q9H1K1)	1.01 ± 0.039	1.06 ± 0.018	0.987 ± 0.043	0.969 ± 0.03	0.96 ± 0.054	0.958 ± 0.047
UniProt Q9H5X1	1 ± 0.019	0.989 ± 0.017	0.956 ± 0.022	0.97 ± 0.029	0.946 ± 0.016	0.959 ± 0.037
UniProt Q9BZF2	1.01 ± 0.035	0.976 ± 0.013	0.9747 ± 0.0057	0.991 ± 0.012	0.993 ± 0.013	0.997 ± 0.018
UniProt Q9HCE5	0.984 ± 0.026	0.955 ± 0.047	0.949 ± 0.034	0.945 ± 0.0095	0.93 ± 0.014	0.908 ± 0.027
UBE2T (UniProt Q9NPD8)	1 ± 0.035	0.997 ± 0.058	0.996 ± 0.057	0.992 ± 0.026	1.01 ± 0.066	0.976 ± 0.053
UniProt Q9H1B7	1.02 ± 0.012	1.05 ± 0.071	1.03 ± 0.016	1.015 ± 0.0057	1 ± 0.013	1.01 ± 0.031
UniProt Q9NP92 and related entries	1.03 ± 0.074	1 ± 0.12	0.998 ± 0.13	0.943 ± 0.17	0.955 ± 0.14	0.968 ± 0.18
ANKZF1 (UniProt Q9H8Y5)	0.995 ± 0.031	1.02 ± 0.043	0.998 ± 0.01	1.01 ± 0.016	0.999 ± 0.02	1.03 ± 0.058
EGLN1 (UniProt Q9GZT9)	1.034 ± 0.0081	1.06 ± 0.039	1.04 ± 0.031	1.01 ± 0.012	0.998 ± 0.012	1.01 ± 0.043
UniProt Q9H7D7 and related entries	0.966 ± 0.03	0.925 ± 0.09	0.957 ± 0.092	0.943 ± 0.046	0.931 ± 0.049	0.928 ± 0.12
ULBP2 (UniProt Q9BZM5)	1.08 ± 0.016	1.08 ± 0.059	1.07 ± 0.016	1.06 ± 0.064	1.05 ± 0.013	1.036 ± 0.008
OSGEP (UniProt Q9NPF4)	0.984 ± 0.019	0.916 ± 0.064	0.946 ± 0.032	0.9199 ± 0.0067	0.938 ± 0.012	0.917 ± 0.033
SCPEP1 (UniProt Q9HB40)	0.982 ± 0.03	1.02 ± 0.087	0.992 ± 0.038	0.97 ± 0.056	0.963 ± 0.045	0.963 ± 0.086
MSL2 (UniProt Q9HCI7)	1.03 ± 0.12	1.03 ± 0.14	1.01 ± 0.11	1.02 ± 0.033	1.04 ± 0.11	1.08 ± 0.11
SFXN1 (UniProt Q9H9B4)	0.986 ± 0.018	0.959 ± 0.0066	0.982 ± 0.035	0.977 ± 0.029	0.983 ± 0.029	0.97 ± 0.03
UniProt Q9H668	0.991 ± 0.028	0.97 ± 0.028	0.985 ± 0.027	0.995 ± 0.018	0.985 ± 0.044	0.963 ± 0.024
KDM4C (UniProt Q9H3R0)	0.989 ± 0.015	0.992 ± 0.029	0.9676 ± 0.0034	0.99 ± 0.025	0.992 ± 0.022	0.99 ± 0.017
UniProt Q9H8M7	0.968 ± 0.01	0.97 ± 0.019	1 ± 0.033	0.985 ± 0.022	0.979 ± 0.014	0.982 ± 0.021

Target	NP40-soluble protein abundance (concentration: 1mM)	NP40-soluble protein abundance (concentration: 2mM)	NP40-soluble protein abundance (concentration: 4mM)	NP40-soluble protein abundance (concentration: 6mM)	NP40-soluble protein abundance (concentration: 8mM)	NP40-soluble protein abundance (concentration: 10mM)
PLEKHA1 (UniProt Q9HB21)	1.01 ± 0.029	1.02 ± 0.078	1.03 ± 0.043	1.05 ± 0.032	1.03 ± 0.043	1.096 ± 0.0045
UniProt Q9HBK9 and related entries	1.01 ± 0.024	0.984 ± 0.051	0.983 ± 0.015	0.981 ± 0.054	0.968 ± 0.056	0.982 ± 0.053
GAN (UniProt Q9H2C0)	0.9934 ± 0.0056	0.968 ± 0.012	0.976 ± 0.047	0.951 ± 0.016	0.926 ± 0.02	0.929 ± 0.021
SLC38A10 (UniProt Q9HBR0)	0.993 ± 0.025	0.993 ± 0.025	0.981 ± 0.018	0.968 ± 0.061	0.976 ± 0.03	0.954 ± 0.045
CHMP1A (UniProt Q9HD42)	0.988 ± 0.051	1.07 ± 0.12	1.01 ± 0.068	1.02 ± 0.092	1.03 ± 0.051	1.03 ± 0.093
UNK (UniProt Q9C0B0)	1.071 ± 0.0069	1.12 ± 0.056	1.11 ± 0.021	1.09 ± 0.072	1.1 ± 0.045	1.11 ± 0.033
WDR33 (UniProt Q9C0J8)	1.04 ± 0.023	1.06 ± 0.014	1.12 ± 0.037	1.12 ± 0.023	1.14 ± 0.036	1.2 ± 0.07
CDT1 (UniProt Q9H211)	1.02 ± 0.027	1.09 ± 0.12	1.04 ± 0.032	1.03 ± 0.041	1.03 ± 0.053	1.01 ± 0.018
UniProt Q9H4A4 and related entries	0.981 ± 0.028	0.931 ± 0.083	0.982 ± 0.015	0.99 ± 0.038	1.02 ± 0.042	0.961 ± 0.013
UniProt Q9H871	0.961 ± 0.028	0.951 ± 0.058	0.961 ± 0.055	0.951 ± 0.068	0.945 ± 0.056	0.929 ± 0.079
UniProt Q9H0P0 and related entries	1 ± 0.016	0.989 ± 0.054	1.01 ± 0.039	0.988 ± 0.035	0.978 ± 0.04	0.96 ± 0.055
UniProt Q9HAJ7 and related entries	0.95342 ± 8.1e-05	0.931 ± 0.053	1.05 ± 0.05	1.05 ± 0.021	0.99 ± 0.046	0.973 ± 0.053
UniProt Q9NPB8 and related entries	1.01 ± 0.017	1.05 ± 0.034	1.02 ± 0.015	0.999 ± 0.033	0.9977 ± 0.0075	1.02 ± 0.019
PNN (UniProt Q9H307)	0.979 ± 0.13	0.981 ± 0.12	0.961 ± 0.15	0.969 ± 0.17	0.923 ± 0.15	1.03 ± 0.24
UniProt Q9H974 and related entries	1.01 ± 0.05	0.985 ± 0.079	1.01 ± 0.058	0.973 ± 0.04	1.01 ± 0.067	0.981 ± 0.059
UniProt Q9C0F1	1.03 ± 0.012	1.03 ± 0.031	1.01 ± 0.047	0.961 ± 0.041	0.948 ± 0.025	0.957 ± 0.033
MOV10 (UniProt Q9HCE1)	0.952 ± 0.027	0.867 ± 0.15	0.932 ± 0.09	0.938 ± 0.032	0.944 ± 0.08	0.889 ± 0.12
UniProt Q9GZR5	0.956 ± 0.011	0.967 ± 0.029	0.974 ± 0.025	0.954 ± 0.0036	0.943 ± 0.062	0.91 ± 0.01
RPAP3 (UniProt Q9H6T3)	1.02 ± 0.031	1.05 ± 0.034	1.01 ± 0.021	0.998 ± 0.042	0.9611 ± 0.0081	0.993 ± 0.019
RRAGC (UniProt Q9HB90)	1.01 ± 0.037	1.01 ± 0.024	0.988 ± 0.025	1.03 ± 0.012	0.991 ± 0.018	1.022 ± 0.01

Rewritten as labelled records: part of the list above.
UNK (UniProt Q9C0B0)
  NP40-soluble protein abundance (concentration: 1mM): 1.071 ± 0.0069
  NP40-soluble protein abundance (concentration: 2mM): 1.12 ± 0.056
  NP40-soluble protein abundance (concentration: 4mM): 1.11 ± 0.021
  NP40-soluble protein abundance (concentration: 6mM): 1.09 ± 0.072
  NP40-soluble protein abundance (concentration: 8mM): 1.1 ± 0.045
  NP40-soluble protein abundance (concentration: 10mM): 1.11 ± 0.033
CDT1 (UniProt Q9H211)
  NP40-soluble protein abundance (concentration: 1mM): 1.02 ± 0.027
  NP40-soluble protein abundance (concentration: 2mM): 1.09 ± 0.12
  NP40-soluble protein abundance (concentration: 4mM): 1.04 ± 0.032
  NP40-soluble protein abundance (concentration: 6mM): 1.03 ± 0.041
  NP40-soluble protein abundance (concentration: 8mM): 1.03 ± 0.053
  NP40-soluble protein abundance (concentration: 10mM): 1.01 ± 0.018

Source: the supplement of paper PMC6411743
